These are yes or no findings as the source states them, for the method shown. In cells and extracts the contact can be indirect. A yes stands for co-enrichment or nearness to the bait. Other partners may have been found.
Tests used:
Assay in all cases: GRB2 immunoprecipitation-mass spectrometry in HEK293T cells [panel G]
CBX4 (human) = target: T1, CBX4 (human) (UniProt O00257)
T1 sequence (looked up): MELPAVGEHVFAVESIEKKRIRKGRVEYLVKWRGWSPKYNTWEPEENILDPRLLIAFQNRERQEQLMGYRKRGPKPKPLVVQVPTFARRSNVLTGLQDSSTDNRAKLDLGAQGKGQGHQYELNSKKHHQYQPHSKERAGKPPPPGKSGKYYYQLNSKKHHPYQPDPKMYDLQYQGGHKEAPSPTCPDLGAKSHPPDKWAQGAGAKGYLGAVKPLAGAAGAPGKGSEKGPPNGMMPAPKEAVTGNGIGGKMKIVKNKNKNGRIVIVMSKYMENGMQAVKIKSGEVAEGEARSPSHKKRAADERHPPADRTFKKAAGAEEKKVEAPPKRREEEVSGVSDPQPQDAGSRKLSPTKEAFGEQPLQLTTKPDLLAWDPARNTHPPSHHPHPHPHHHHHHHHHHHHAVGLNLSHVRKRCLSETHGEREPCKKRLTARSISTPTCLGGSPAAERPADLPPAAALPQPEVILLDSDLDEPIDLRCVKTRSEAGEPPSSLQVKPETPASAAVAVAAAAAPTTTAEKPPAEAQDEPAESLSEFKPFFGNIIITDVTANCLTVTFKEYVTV

Amino acid sequences for entries named in this document (tags omitted).
UniProt Q7Z6Z7: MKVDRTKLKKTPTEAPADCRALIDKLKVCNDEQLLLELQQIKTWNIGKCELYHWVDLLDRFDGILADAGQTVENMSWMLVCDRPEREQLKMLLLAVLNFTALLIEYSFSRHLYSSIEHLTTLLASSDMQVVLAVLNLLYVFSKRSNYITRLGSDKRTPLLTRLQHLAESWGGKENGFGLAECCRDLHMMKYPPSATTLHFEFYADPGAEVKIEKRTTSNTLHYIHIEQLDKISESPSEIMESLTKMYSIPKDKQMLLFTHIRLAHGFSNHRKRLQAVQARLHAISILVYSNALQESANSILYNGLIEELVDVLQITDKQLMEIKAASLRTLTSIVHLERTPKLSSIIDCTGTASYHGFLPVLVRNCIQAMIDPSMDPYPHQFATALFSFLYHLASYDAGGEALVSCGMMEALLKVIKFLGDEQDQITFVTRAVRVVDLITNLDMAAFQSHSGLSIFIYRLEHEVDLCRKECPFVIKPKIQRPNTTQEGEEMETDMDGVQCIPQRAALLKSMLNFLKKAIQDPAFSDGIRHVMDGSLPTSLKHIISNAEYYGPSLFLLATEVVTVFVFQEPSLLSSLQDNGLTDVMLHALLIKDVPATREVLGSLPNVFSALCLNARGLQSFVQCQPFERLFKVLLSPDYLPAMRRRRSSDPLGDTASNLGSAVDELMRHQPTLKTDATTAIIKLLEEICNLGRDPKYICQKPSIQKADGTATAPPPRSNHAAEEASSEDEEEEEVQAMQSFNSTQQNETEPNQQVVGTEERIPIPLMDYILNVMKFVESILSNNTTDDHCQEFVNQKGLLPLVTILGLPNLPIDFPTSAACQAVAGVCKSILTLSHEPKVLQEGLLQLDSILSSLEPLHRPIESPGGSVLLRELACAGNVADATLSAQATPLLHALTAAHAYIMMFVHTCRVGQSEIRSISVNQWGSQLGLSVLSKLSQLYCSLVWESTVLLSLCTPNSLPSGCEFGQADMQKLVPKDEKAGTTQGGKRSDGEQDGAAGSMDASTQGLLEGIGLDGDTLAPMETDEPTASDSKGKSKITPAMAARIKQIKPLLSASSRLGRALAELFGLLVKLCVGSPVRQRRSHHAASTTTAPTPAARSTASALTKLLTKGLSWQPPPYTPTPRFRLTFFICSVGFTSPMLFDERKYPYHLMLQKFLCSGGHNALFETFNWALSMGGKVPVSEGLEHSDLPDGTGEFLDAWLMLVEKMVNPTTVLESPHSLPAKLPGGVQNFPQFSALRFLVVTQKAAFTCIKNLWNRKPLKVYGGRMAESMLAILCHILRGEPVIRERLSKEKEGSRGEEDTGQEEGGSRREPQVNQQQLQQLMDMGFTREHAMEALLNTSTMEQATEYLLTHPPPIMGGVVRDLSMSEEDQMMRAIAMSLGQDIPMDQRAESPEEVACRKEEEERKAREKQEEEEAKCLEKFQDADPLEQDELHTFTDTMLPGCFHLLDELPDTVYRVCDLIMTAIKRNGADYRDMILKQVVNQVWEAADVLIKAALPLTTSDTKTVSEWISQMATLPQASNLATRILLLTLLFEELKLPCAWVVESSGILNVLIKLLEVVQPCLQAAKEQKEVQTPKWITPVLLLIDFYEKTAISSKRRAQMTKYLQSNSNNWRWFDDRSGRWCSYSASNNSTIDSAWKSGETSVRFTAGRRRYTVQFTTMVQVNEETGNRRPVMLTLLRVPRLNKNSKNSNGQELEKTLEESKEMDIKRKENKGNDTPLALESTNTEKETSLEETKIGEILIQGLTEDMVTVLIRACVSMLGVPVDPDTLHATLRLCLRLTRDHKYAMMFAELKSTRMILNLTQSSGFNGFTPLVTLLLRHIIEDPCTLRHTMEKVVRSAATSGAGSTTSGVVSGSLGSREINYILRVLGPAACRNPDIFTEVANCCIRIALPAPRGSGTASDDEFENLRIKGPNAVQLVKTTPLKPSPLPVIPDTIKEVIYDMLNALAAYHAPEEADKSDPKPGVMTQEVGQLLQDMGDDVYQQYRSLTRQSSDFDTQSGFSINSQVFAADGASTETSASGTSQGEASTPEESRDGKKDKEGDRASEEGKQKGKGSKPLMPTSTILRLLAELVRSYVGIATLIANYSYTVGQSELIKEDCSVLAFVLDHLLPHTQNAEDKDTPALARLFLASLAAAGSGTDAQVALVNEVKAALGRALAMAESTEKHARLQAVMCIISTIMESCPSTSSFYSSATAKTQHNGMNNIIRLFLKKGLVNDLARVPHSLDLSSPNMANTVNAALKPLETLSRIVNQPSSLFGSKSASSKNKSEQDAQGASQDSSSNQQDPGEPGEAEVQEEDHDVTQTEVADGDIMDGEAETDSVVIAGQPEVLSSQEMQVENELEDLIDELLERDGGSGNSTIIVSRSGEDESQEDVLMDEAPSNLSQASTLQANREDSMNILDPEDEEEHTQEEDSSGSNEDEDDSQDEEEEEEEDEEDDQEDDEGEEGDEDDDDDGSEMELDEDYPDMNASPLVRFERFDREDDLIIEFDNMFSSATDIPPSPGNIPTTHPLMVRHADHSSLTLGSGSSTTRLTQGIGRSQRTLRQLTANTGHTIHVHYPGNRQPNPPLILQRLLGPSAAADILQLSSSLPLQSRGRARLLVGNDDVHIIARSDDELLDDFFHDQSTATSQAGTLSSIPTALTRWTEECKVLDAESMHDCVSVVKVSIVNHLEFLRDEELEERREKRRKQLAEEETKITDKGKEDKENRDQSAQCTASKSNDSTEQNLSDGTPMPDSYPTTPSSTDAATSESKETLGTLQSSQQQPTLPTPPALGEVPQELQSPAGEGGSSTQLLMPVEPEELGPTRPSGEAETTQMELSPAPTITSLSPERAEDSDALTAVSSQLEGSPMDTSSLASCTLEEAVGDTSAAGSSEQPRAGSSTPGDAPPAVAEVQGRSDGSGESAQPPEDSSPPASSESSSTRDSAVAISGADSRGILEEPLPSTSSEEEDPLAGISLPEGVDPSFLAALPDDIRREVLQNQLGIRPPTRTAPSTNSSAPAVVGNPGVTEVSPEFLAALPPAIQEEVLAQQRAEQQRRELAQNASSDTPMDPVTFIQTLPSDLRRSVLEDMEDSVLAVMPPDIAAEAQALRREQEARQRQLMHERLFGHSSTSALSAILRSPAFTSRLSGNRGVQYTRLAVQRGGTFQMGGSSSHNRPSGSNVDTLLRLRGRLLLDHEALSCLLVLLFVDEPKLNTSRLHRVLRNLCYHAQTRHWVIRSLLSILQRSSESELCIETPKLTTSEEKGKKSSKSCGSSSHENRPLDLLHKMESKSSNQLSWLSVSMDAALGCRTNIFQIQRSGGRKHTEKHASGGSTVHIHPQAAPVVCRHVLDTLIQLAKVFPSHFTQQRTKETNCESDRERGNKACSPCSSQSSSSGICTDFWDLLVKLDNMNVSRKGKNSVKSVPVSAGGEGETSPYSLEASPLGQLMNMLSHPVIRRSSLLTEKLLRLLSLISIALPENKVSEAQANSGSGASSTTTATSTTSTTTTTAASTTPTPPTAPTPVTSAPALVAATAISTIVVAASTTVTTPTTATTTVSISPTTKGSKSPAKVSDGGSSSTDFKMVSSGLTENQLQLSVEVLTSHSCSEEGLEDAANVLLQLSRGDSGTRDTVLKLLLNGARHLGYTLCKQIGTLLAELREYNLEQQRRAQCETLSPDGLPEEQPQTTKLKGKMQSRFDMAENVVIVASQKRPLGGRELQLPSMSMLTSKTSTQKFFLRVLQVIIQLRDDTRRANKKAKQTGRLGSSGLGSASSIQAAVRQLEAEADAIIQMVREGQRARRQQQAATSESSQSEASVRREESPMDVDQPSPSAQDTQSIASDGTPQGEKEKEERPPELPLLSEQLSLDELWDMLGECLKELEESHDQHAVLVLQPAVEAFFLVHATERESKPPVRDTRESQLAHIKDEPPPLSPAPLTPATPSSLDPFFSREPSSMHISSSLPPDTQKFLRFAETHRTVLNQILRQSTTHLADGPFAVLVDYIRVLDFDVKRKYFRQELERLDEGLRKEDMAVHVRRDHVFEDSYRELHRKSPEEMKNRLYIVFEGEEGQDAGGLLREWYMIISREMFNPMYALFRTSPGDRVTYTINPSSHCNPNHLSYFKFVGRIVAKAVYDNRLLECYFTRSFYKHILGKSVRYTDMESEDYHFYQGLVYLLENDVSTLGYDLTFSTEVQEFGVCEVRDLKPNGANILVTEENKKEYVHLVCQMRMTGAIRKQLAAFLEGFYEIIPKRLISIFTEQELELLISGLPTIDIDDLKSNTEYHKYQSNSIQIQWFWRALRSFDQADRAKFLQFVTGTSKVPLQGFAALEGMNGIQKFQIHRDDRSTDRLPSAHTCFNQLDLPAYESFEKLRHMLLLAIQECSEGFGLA
UniProt Q9NS91: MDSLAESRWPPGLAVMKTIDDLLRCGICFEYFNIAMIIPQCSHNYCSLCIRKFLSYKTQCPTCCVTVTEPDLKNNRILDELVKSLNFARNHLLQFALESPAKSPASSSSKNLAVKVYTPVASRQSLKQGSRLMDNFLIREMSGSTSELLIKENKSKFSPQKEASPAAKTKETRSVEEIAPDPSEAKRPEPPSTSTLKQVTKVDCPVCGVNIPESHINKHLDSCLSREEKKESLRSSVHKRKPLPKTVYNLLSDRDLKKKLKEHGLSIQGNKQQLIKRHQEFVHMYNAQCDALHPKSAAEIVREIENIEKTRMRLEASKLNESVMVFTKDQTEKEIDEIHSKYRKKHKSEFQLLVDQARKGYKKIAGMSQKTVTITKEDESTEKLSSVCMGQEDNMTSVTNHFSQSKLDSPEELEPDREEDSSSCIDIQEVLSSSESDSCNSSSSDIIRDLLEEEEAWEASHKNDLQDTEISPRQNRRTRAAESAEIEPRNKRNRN
UniProt O00308: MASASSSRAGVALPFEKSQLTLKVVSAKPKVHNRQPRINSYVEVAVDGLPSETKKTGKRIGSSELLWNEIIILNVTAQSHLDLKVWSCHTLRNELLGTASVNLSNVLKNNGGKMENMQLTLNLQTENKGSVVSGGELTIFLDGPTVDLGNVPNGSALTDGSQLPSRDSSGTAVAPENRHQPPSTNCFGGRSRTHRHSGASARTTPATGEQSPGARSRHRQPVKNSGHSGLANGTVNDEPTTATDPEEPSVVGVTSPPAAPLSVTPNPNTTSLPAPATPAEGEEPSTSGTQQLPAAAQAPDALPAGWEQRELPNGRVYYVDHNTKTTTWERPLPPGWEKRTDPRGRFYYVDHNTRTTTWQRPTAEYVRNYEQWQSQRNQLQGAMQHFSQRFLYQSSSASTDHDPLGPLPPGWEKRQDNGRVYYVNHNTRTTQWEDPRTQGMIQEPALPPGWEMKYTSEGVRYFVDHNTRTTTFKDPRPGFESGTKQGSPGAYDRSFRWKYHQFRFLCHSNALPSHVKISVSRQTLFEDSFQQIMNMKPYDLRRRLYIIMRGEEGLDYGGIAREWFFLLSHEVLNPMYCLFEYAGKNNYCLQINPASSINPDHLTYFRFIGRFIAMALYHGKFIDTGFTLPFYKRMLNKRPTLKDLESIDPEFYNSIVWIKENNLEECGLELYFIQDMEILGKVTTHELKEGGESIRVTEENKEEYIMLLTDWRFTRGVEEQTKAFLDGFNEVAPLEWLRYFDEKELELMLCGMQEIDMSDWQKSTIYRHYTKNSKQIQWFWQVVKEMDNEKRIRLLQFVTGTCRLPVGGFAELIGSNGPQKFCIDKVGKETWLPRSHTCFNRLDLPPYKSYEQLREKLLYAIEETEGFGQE
UniProt P62993: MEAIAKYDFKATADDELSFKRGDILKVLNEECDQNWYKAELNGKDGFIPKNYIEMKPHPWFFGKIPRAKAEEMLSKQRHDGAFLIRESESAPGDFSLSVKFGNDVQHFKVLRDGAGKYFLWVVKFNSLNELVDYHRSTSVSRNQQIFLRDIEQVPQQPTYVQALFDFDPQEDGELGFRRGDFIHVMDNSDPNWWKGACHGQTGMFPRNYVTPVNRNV

HUWE1 (human) = HUWE1 (human) (UniProt Q7Z6Z7)
MYCBP2 (human) = MYCBP2 (human) (UniProt O75592)
PIAS1 (human) = PIAS1 (human) (UniProt O75925)
PPIL2 (human) = target: T2, PPIL2 (human) (UniProt Q13356)
T2 sequence (looked up): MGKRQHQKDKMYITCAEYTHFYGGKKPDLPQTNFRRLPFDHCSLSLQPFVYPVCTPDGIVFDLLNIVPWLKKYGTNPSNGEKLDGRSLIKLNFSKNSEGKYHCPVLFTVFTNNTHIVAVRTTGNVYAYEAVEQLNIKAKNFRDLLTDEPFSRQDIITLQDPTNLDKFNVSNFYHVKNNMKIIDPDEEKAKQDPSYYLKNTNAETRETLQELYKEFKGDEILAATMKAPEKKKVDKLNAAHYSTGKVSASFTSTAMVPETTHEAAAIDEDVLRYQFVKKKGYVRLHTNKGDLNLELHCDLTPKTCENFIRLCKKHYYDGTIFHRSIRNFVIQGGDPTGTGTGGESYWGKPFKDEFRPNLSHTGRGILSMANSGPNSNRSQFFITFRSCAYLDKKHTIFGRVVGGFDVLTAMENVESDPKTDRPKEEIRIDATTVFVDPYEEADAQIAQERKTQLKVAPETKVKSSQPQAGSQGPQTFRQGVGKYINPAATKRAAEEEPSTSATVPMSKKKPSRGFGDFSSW

RAD18 (human) = RAD18 (human) (UniProt Q9NS91)
RANBP2 (human) = RANBP2 (human) (UniProt P49792)
UHRF1 (human) = target: T3, UHRF1 (human) (UniProt Q96T88)
T3 sequence (looked up): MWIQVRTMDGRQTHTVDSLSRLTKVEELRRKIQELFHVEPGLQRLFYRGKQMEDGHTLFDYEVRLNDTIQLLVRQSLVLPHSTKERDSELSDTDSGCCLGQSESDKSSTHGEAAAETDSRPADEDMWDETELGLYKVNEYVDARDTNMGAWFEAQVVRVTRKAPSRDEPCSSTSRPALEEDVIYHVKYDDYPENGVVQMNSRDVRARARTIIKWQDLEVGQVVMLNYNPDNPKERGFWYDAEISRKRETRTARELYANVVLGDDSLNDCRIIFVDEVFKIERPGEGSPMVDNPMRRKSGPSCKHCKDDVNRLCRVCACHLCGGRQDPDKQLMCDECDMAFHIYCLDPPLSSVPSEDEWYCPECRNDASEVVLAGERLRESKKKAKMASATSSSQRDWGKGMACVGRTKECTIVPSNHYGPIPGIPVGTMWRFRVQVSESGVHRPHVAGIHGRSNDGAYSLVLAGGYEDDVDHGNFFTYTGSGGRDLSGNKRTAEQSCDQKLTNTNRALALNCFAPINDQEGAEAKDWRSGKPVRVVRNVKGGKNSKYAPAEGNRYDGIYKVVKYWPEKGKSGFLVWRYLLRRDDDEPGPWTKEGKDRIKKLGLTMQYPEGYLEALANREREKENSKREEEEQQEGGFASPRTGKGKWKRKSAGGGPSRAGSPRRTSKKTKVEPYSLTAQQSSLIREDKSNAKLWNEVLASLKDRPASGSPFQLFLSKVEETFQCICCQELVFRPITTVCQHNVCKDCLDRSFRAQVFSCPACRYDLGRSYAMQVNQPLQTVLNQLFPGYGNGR

UHRF2 (human) = target: T4, UHRF2 (human) (UniProt Q96PU4)
T4 sequence (looked up): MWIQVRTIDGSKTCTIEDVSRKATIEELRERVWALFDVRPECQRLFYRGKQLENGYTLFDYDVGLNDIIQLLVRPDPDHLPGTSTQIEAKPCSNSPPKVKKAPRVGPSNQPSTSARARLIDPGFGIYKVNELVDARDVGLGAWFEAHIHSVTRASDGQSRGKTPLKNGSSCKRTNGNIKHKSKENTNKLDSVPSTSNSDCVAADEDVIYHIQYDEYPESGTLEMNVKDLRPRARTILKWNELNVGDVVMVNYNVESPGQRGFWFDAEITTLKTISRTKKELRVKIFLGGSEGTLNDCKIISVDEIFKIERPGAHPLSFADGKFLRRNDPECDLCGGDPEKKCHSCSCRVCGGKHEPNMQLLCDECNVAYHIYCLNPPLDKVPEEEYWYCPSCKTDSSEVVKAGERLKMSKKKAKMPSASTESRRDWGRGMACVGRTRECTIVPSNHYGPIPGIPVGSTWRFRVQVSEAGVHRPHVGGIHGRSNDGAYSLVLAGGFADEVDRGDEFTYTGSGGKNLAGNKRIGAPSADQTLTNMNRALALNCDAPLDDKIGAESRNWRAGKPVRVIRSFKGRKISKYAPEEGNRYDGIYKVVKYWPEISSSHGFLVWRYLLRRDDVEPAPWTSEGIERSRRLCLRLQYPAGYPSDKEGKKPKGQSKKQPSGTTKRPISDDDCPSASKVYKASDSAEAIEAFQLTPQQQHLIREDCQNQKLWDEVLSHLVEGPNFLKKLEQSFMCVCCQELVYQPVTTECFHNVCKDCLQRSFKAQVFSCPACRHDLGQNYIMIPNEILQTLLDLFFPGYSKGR

WWP2 (human) = WWP2 (human) (UniProt O00308)

Measured: binding

Strep-tagged wild-type GRB2 expressed in cells (HEK293T; reconstituted GRB2-KO cells) (from UniProt P62993 1-217)
binds: all assays above
